Source: the supplement of paper PMC12067093, “Discovery and optimisation of a covalent ligand for TRIM25 and its application to targeted protein ubiquitination” (Chemical Science, 2025)
Some of the results follow.

By UniProt entry, the sequences of proteins in these tests, tags left out. Where a name states a change or a piece, a line headed by the entry shows the natural chain unless it says otherwise.
UniProt Q5BJF6: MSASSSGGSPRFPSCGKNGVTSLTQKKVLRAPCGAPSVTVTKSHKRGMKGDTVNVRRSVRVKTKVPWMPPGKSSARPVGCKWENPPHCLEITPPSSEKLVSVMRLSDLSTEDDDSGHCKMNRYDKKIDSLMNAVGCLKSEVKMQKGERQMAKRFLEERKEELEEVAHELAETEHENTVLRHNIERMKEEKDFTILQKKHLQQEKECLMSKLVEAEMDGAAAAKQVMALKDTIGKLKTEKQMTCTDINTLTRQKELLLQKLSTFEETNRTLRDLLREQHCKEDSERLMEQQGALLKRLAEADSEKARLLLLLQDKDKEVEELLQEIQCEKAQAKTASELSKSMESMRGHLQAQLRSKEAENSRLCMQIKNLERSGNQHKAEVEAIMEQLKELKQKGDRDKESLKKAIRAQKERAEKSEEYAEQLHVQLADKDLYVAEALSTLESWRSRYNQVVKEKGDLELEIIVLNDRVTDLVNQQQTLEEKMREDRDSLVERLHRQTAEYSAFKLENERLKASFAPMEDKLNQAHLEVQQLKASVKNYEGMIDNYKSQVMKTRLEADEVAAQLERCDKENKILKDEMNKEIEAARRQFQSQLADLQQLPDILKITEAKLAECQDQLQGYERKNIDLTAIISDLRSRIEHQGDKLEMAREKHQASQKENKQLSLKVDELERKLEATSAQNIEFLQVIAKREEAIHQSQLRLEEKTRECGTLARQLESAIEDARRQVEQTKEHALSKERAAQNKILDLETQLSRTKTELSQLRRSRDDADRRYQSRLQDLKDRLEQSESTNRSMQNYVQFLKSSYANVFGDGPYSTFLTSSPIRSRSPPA
UniProt O15381: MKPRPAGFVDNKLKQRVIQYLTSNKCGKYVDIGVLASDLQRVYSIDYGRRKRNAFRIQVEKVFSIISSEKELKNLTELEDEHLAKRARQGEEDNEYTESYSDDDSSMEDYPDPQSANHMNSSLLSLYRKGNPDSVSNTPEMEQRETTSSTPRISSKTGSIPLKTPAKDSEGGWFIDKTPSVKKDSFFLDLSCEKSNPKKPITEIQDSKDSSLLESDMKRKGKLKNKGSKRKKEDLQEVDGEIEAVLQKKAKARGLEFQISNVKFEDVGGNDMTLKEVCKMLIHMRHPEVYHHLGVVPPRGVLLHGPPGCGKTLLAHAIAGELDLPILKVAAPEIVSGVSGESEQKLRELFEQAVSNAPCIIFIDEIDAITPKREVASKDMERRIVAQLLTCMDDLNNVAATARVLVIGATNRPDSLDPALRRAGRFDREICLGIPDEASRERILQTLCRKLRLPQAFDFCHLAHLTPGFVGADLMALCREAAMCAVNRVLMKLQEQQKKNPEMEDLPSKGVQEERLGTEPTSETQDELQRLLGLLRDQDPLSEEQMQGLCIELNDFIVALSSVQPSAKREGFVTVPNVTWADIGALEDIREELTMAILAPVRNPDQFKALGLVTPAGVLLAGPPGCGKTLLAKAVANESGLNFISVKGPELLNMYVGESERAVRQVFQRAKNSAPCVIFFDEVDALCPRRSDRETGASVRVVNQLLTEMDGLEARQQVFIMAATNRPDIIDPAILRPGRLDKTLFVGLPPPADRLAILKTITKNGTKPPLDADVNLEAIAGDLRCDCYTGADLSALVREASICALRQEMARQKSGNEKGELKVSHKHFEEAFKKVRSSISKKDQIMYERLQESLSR
UniProt Q14980: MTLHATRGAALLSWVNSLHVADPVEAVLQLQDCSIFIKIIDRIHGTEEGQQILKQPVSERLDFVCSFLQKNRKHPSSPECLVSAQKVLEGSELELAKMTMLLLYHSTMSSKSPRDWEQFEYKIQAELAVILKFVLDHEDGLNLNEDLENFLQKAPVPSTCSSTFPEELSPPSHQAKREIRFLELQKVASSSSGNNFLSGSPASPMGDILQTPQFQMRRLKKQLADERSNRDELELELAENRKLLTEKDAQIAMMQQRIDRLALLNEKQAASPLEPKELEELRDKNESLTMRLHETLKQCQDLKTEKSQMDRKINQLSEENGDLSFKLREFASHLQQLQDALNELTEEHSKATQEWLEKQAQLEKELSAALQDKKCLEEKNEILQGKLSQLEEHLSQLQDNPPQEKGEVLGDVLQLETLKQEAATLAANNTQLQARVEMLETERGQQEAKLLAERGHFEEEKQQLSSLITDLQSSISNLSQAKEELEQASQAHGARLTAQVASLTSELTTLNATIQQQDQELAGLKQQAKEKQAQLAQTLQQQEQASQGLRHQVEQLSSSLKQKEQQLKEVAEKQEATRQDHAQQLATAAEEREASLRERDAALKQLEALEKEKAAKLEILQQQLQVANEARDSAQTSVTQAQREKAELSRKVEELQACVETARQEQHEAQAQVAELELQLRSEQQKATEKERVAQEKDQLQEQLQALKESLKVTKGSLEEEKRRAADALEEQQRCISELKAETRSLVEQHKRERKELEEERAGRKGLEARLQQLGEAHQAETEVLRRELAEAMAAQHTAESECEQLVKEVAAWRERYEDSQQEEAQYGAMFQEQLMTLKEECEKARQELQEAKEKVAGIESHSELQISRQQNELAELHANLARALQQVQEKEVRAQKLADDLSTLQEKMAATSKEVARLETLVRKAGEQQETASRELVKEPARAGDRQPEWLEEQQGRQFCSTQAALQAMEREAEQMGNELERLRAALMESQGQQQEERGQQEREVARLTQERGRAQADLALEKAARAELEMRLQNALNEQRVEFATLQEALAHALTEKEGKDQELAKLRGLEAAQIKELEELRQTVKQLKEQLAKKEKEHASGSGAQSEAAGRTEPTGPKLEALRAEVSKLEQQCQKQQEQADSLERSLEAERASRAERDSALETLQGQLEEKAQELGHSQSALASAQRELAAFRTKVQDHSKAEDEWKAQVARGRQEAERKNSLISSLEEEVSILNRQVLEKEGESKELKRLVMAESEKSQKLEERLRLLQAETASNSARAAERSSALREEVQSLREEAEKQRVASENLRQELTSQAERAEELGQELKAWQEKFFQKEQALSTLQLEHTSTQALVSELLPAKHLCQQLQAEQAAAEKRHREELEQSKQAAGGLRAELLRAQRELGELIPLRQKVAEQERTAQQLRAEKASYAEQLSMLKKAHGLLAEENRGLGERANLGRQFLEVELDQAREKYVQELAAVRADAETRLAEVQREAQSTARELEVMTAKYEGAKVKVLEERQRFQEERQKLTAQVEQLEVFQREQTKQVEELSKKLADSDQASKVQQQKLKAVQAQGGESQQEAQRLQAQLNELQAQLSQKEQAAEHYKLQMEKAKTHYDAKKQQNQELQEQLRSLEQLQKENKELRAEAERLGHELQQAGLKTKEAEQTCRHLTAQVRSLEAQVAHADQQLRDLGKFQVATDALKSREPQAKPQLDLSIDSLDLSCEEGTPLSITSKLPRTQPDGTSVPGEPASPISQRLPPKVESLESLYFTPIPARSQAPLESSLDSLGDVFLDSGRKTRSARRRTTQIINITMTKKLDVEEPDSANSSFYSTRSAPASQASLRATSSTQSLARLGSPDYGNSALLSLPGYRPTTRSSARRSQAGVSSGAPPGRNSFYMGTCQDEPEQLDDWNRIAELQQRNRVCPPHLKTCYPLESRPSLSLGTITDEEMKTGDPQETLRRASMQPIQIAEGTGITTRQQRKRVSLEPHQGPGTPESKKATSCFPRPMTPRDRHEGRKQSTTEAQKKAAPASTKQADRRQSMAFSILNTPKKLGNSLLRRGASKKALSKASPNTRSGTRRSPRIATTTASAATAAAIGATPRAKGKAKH
UniProt Q96RS6: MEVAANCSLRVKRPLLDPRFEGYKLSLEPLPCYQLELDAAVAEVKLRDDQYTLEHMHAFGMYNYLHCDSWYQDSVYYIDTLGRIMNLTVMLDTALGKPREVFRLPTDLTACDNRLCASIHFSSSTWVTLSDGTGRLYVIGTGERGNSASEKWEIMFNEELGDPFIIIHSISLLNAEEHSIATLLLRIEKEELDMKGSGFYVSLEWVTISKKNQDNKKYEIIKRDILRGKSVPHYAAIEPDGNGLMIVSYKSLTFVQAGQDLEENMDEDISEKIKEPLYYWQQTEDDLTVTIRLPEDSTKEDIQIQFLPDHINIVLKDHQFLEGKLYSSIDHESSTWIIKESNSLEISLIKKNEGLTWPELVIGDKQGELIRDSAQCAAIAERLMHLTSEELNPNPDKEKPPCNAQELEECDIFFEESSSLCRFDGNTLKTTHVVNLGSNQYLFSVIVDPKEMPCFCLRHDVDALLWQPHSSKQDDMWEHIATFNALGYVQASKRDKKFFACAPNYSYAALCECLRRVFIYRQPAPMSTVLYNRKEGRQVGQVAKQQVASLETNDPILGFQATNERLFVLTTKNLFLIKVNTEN
UniProt Q02218: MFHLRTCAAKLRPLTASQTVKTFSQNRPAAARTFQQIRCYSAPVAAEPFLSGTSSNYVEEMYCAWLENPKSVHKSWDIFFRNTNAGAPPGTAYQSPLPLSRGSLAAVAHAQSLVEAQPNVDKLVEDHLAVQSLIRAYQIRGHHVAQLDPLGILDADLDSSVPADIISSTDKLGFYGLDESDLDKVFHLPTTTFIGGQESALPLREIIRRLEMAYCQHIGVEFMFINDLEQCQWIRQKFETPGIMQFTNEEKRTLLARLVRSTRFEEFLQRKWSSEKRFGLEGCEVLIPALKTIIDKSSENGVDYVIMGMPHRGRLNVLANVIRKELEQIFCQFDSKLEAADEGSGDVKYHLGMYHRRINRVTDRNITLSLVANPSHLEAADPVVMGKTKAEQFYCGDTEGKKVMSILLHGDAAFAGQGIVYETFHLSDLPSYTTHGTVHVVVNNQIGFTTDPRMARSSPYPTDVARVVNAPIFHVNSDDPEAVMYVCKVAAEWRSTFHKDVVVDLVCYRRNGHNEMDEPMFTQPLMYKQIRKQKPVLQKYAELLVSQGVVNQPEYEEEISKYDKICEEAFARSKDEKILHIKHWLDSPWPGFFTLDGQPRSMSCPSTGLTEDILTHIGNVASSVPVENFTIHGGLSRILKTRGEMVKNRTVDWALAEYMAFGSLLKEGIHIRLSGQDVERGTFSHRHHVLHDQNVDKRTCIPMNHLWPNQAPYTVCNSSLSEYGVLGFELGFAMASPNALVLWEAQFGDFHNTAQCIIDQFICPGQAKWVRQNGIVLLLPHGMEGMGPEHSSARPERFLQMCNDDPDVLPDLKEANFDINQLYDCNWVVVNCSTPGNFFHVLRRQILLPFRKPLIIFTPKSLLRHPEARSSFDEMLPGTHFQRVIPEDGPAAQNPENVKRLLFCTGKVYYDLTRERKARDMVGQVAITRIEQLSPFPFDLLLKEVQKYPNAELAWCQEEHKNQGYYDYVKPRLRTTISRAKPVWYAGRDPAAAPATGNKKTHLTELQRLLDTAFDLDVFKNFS
UniProt P49757: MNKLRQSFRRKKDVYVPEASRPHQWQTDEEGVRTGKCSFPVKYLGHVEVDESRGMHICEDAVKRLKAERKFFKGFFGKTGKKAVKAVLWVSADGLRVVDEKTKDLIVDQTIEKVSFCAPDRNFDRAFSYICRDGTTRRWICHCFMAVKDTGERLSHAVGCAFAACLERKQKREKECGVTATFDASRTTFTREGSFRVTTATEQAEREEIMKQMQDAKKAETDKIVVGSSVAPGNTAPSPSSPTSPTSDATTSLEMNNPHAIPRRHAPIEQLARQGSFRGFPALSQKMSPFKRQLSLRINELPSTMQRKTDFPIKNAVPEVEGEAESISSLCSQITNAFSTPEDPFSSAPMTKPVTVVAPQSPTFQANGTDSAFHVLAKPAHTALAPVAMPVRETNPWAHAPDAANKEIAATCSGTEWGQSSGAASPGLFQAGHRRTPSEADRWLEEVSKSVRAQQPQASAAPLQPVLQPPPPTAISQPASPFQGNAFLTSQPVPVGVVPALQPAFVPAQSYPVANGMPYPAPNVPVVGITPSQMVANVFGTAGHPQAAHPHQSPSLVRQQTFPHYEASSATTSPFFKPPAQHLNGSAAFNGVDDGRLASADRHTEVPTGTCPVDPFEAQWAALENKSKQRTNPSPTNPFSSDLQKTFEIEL
UniProt Q9Y530: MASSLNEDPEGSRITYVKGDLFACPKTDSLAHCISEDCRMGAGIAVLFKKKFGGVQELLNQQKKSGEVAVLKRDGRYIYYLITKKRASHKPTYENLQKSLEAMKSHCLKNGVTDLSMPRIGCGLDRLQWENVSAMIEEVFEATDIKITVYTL
UniProt O15527, whole entry: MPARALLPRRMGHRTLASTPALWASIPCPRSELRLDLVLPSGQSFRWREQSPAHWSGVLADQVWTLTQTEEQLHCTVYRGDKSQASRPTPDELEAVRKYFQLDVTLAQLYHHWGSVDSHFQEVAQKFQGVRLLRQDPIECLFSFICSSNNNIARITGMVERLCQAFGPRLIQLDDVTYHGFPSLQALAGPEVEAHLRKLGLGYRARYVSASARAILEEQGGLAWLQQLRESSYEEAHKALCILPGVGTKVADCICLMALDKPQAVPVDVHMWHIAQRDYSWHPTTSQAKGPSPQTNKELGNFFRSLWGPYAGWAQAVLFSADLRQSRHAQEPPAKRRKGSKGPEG

Compound: Cc1cc(ccc1-c1ccccc1)C(=O)N1CCCN(CC1)C(=O)CCl [compound 10]
Assay: probe-labelled cysteine peptide fold change vs DMSO (competition) (log2 fold change); higher = less target engagement (more negative = stronger competition)
Conditions: 10 µM; THP-1; incubation time: 4 h
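Also: competitive profiling in live THP-1 cells: cysteine peptides tagged with an iodoacetamide desthiobiotin (IA-DTB) probe, intensity after compound treatment relative to DMSO-treated cells.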

Target | probe-labelled cysteine peptide fold change
ODF2_Q5BJF6_708_TRECGTLAR (UniProt Q5BJF6) | 0.538
NVL_O15381_309_GVLLHGPPGCGK (UniProt O15381) | 0.0664
OBSL1_O75147_738_VVLTCELSR (UniProt O75147) | 0.0557
NUMA1_Q14980_1367_HLCQQLQAEQAAAEKR (UniProt Q14980) | -0.138
NUP205_Q92621_1486_DACDGHEIGR (UniProt Q92621) | 0.0414
NUP50_Q9UKX7_151_ACVGNAYHK (UniProt Q9UKX7) | -0.233
NUB1_Q9Y5A7_400_ACDGNVDHAATHITNRR (UniProt Q9Y5A7) | -0.285
OGFR_Q9NZT2_330_TCGPEHSK (UniProt Q9NZT2) | 0.037
NUDCD1_Q96RS6_32_LSLEPLPCYQLELDAAVAEVK (UniProt Q96RS6) | -0.0441
OGDH_Q02218_283_FGLEGCEVLIPALK (UniProt Q02218) | 0.0342
NUMB_P49757_176_ECGVTATFDASR (UniProt P49757) | -0.125
OGA_O60502_618_FEEMCGLVMGMFTR (UniProt O60502) | 0.0527
NUP43_Q8NFH3_222_VPLHCVDRHPNQQHVVATGGQDGMLSIWDVR (UniProt Q8NFH3) | 0.221
NUMA1_Q14980_658_KVEELQACVETAR (UniProt Q14980) | -0.0196
NTPCR_Q9BSD7_184_NHLLPDIVTCVQSSR (UniProt Q9BSD7) | -0.0593
OGFOD3_Q6PK18_90_FIEVPCSEDYDSHR (UniProt Q6PK18) | -0.116
NUDCD1_Q96RS6_111_LPTDLTACDNR (UniProt Q96RS6) | 0.129
NUDT16L1_Q9BRJ7_171_CQLLFALK (UniProt Q9BRJ7) | -0.0753
OARD1_Q9Y530_24_GDLFACPK (UniProt Q9Y530) | 0.271
NUBPL_Q8TB37_244_VHVPVLGLVQNMSVFQCPK (UniProt Q8TB37) | 0.14

Target | probe-labelled cysteine peptide fold change
OPA1_O60313_551_NLSLAVSDCFWK (UniProt O60313) | 0.215
NUP155_O75694_917_ISNQVDLSNVCAQYR (UniProt O75694) | -0.109
NUP160_Q12769_1131_QGNCYLAALNCLR (UniProt Q12769) | 0.11
OGDH_Q02218_283_RFGLEGCEVLIPALK (UniProt Q02218) | 0.0129
NXF1_Q9UBU9_143_CSVPFTPIEFHYENTR (UniProt Q9UBU9) | -0.0336
NUMB_P49757_58_GMHICEDAVKR (UniProt P49757) | -0.0579
NUDT9_Q9BW91_347_DAHWSEDSEADCHAL (UniProt Q9BW91) | -0.118
OGG1_O15527_140_LLRQDPIECLFSFICSSNNNIAR (UniProt O15527) | 0.0334
ODF2_Q5BJF6_708_ECGTLAR (UniProt Q5BJF6) | 0.497
NUP43_Q8NFH3_222_QQGNEPSQILSLTGDRVPLHCVDR (UniProt Q8NFH3) | -0.0219
OGDH_Q02218_487_VVNAPIFHVNSDDPEAVMYVCK (UniProt Q02218) | -0.0133
NUP188_Q5SRE5_95_FLGLDEEQSVQLLQCYLQEDYR (UniProt Q5SRE5) | 0.0307
OAS2_P29728_210_HWHQQCQK (UniProt P29728) | -0.708
NUBP2_Q9Y5Y2_177_RELTFCR (UniProt Q9Y5Y2) | -0.0503
ODF2_Q5BJF6_327_DKEVEELLQEIQCEK (UniProt Q5BJF6) | -0.0625
OCRL_Q01968_611_LNDSQYCK (UniProt Q01968) | 0.0459
NVL_O15381_687_NSAPCVIFFDEVDALCPR (UniProt O15381) | 0.105
NUP98_P52948_1027_ADTSQEICSPR (UniProt P52948) | -0.0594
NUMA1_Q14980_80_HPSSPECLVSAQK (UniProt Q14980) | -0.09
NUP205_Q92621_237_QSLAESLFAWACQSPLGKEDTLLLIGHLER (UniProt Q92621) | 0.216

A few values from above.
Value for OGG1_O15527_140_LLRQDPIECLFSFICSSNNNIAR (UniProt O15527) under probe-labelled cysteine peptide fold change: 0.0334
Value for NUP43_Q8NFH3_222_VPLHCVDRHPNQQHVVATGGQDGMLSIWDVR (UniProt Q8NFH3) under probe-labelled cysteine peptide fold change: 0.221
